Results from the supplement of paper PMC7125110.
± gives the standard error. The uncertainty is large for many entries.

B1: glmS ribozyme (parent)
chain: AUAAAAGCGCCAGAACUACAGAAAUGUAGUUGACGAGGAGGAGGUUUAUCGAAUUUUCGGCGGAUGCCUCCAAA

Variants of: B1
Test: kcat; higher = faster cleavage; RNA array
Settings: with glucosamine-6-phosphate
Procedure, shortened: (§1)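 Glucosamine-6-phosphate in HEPES/KCl/Mg(OAc)2 buffer, at 40 μM to 10 mM, was flowed over barcoded ribozyme variants transcribed in situ by E. coli RNA polymerase on sequenced MiSeq chips. Tracking was through a hybridised Cy3 probe at 37 °C. kobs, kcat and KM came from exponential decay fits and weighted Michaelis–Menten fits of normalised per-tile medians.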

Variant	kcat
A6C A39G	6.38e-05 ± 7.8e-07 s⁻¹
A6U U30A	3.27e-05 ± 4.2e-06 s⁻¹
G7A C16U	7.82e-05 ± 7.7e-05 s⁻¹
G7A G38A G63U C70G	6.39e-05 ± 3.6e-05 s⁻¹
C10A U69G	4.22e-05 ± 3.6e-05 s⁻¹
C10G C67G	1.02e-05 ± 7.4e-06 s⁻¹
C10G U56G G59U	4.81e-05 ± 4.4e-05 s⁻¹
C11G A14C U69A	6.08e-05 ± 6e-05 s⁻¹
A12C U55G	0.0339 ± 0.025 s⁻¹
A12G G63C	< 1e-05 s⁻¹
A12U U56A	0.0897 ± 0.049 s⁻¹
G13C A14U C68U	1.07e-05 ± 1.2e-06 s⁻¹
G13C G32C U47C	2.34e-05 ± 1.7e-05 s⁻¹
G13U G43A	< 1e-05 s⁻¹
G13U U57C	4.31e-05 ± 6.8e-06 s⁻¹
A14C G43U U56A C68U	0.000184 ± 9.6e-05 s⁻¹
A14C U55A C68A	3.34e-05 ± 2.5e-05 s⁻¹
A14G G40A G41U G66A	0.000815 ± 0.00014 s⁻¹
A14U C61A	2.96e-05 ± 2.1e-05 s⁻¹
A14U C70U	0.000847 ± 0.00056 s⁻¹

Variant	kcat
A15C C16A G37U C70U C71G	1.25e-05 ± 2.5e-06 s⁻¹
A15G C71A	0.00238 ± 0.0015 s⁻¹
A15G G32A	0.00262 ± 0.0015 s⁻¹
A15G U30G C70U	0.00172 ± 0.0012 s⁻¹
A15G U57A	0.000632 ± 0.00046 s⁻¹
A15U A39C	0.00112 ± 0.00025 s⁻¹
A15U U46C C70G	4.64e-05 ± 2.4e-05 s⁻¹
A15U U56A	0.0067 ± 0.0038 s⁻¹
C16A C34G C68G	6.61e-05 ± 3.9e-05 s⁻¹
C16A G29C	0.00401 ± 0.0015 s⁻¹
C16A U57C	< 1e-05 s⁻¹
C16G U65G	0.00228 ± 0.0011 s⁻¹
C16U U56A	0.00883 ± 0.0061 s⁻¹
C19A U54C C58A C68G	5.03e-05 ± 4.1e-05 s⁻¹
G29A A39G	0.0054 ± 0.0031 s⁻¹
G29C C61G C67U	2.09e-05 ± 1.3e-05 s⁻¹
G29U A64U	1.06e-05 ± 2.5e-07 s⁻¹
G29U G41A	0.000207 ± 3.7e-05 s⁻¹
U30A C61A	< 1e-05 s⁻¹
U30C C58U C67G C71A	0.000162 ± 9.1e-05 s⁻¹

Variant	kcat
U30G A36G C71G	1.69e-05 ± 3.9e-06 s⁻¹
U30G U56A	0.00811 ± 0.0019 s⁻¹
U31A U55G	0.0116 ± 0.0067 s⁻¹
U31C G37U	< 1e-05 s⁻¹
U31G U54G	0.0117 ± 0.0073 s⁻¹
G32A C67A	0.000956 ± 0.00011 s⁻¹
G32C C70A	1.5e-05 ± 8.1e-06 s⁻¹
G32C U69A	2.41e-05 ± 1.8e-05 s⁻¹
A33G C71G	1.2e-05 ± 6.2e-06 s⁻¹
C34U G38U	< 1e-05 s⁻¹
A36C G60A	< 1e-05 s⁻¹
G37A C50G C71A	5.67e-05 ± 3.8e-05 s⁻¹
G37A U56C G66U	9.43e-05 ± 5.3e-05 s⁻¹
G37C U54G	5.61e-05 ± 4e-05 s⁻¹
A39G U54G	0.00463 ± 0.0031 s⁻¹
A39U C58G	0.000106 ± 3.3e-06 s⁻¹
A39U U45A	0.023 ± 0.013 s⁻¹
G40U U45A	0.0022 ± 0.00057 s⁻¹
G40U U55G	0.00263 ± 0.0014 s⁻¹

Variants of: B1
Test: KM; higher = weaker cofactor use; RNA array
Settings: with glucosamine-6-phosphate
Procedure, shortened: as §1

Variant	KM
A6C A39G	439 ± 33 µM
A6U U30A	1060 ± 730 µM
A12C U55G	4590 ± 4500 µM
A12G G63C	438 ± 310 µM
A12U U56A	3680 ± 2300 µM
G13U U57C	975 ± 620 µM
A14G G40A G41U G66A	2850 ± 980 µM
A15G G32A	2650 ± 2000 µM
A15U A39C	1960 ± 980 µM
A15U U56A	3510 ± 2600 µM
C16A G29C	1940 ± 970 µM
C16G U65G	7750 ± 4900 µM
C16U U56A	1240 ± 1100 µM
G29A A39G	893 ± 750 µM
G29U A64U	4920 ± 300 µM
G29U G41A	1480 ± 620 µM
U30G U56A	2730 ± 850 µM
U31A U55G	2170 ± 1500 µM
U31C G37U	160 ± 82 µM
U31G U54G	2990 ± 2300 µM
G32A C67A	2730 ± 630 µM
G37A U56C G66U	28500 ± 22000 µM
A39U C58G	9290 ± 520 µM
A39U U45A	1320 ± 950 µM
G40U U45A	1030 ± 420 µM
G40U U55G	2180 ± 1500 µM

Individual results from the list:
For KM, G40U U55G has 2180 ± 1500 µM
For KM, G29U A64U has 4920 ± 300 µM
For KM, A15U U56A has 3510 ± 2600 µM

Two neighbouring records out of the list so far:
Variant	KM
A12U U56A	3680 ± 2300 µM
G13U U57C	975 ± 620 µM

Variants of: B1
Test: self-cleavage kobs at 640 uM GlcN6P; higher = faster cleavage; RNA array
Settings: with glucosamine-6-phosphate
Procedure, shortened: as §1

Variant	self-cleavage kobs at 640 uM GlcN6P
A6C A39G	3.8e-05 ± 2e-05 s⁻¹
C10G C67G	0.0001 ± 5.8e-05 s⁻¹
C16A U57C	0.00193 ± 0.0019 s⁻¹
G37C U54G	4.06e-05 ± 2.1e-05 s⁻¹

Variants of: B1
Test: self-cleavage kobs at 2500 uM GlcN6P; higher = faster cleavage; RNA array
Settings: with glucosamine-6-phosphate
Procedure, shortened: as §1

Variant	self-cleavage kobs at 2500 uM GlcN6P
A6U U30A	2.69e-05 ± 1.5e-05 s⁻¹
G7A G38A G63U C70G	5.18e-05 ± 3.5e-05 s⁻¹
G13C G32C U47C	6.87e-05 ± 3.4e-05 s⁻¹
A15G U30G C70U	0.00252 ± 0.0014 s⁻¹

Variants of: B1
Test: self-cleavage kobs at 10000 uM GlcN6P; higher = faster cleavage; RNA array
Settings: with glucosamine-6-phosphate
Procedure, shortened: as §1

Variant	self-cleavage kobs at 10000 uM GlcN6P
C10G U56G G59U	2.71e-05 ± 1.9e-05 s⁻¹
C19A U54C C58A C68G	1.94e-05 ± 1.7e-05 s⁻¹

Variants of: B1
Test: self-cleavage kobs at 40 uM GlcN6P; higher = faster cleavage; RNA array
Settings: with glucosamine-6-phosphate
Procedure, shortened: as §1

Variant	self-cleavage kobs at 40 uM GlcN6P
C11G A14C U69A	3.3e-05 ± 2e-05 s⁻¹
A14C G43U U56A C68U	4.08e-05 ± 2.7e-05 s⁻¹
A14G G40A G41U G66A	3.3e-05 ± 2.2e-05 s⁻¹
C16G U65G	3.31e-05 ± 2.9e-05 s⁻¹
C19A U54C C58A C68G	2.84e-05 ± 1.8e-05 s⁻¹
U30C C58U C67G C71A	3.63e-05 ± 3.2e-05 s⁻¹
